The chains behind the UniProt entries cited, without tags or fusion partners.
UniProt Q0JBA9, entry or part of it: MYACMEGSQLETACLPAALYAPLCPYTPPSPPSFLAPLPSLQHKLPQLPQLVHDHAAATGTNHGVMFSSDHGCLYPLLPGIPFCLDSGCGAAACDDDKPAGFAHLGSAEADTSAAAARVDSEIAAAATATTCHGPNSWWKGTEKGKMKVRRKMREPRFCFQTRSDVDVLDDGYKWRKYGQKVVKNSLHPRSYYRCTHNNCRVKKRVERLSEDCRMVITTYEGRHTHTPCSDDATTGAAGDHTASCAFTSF

The other results are listed elsewhere or left out.
The sequences below were run against OsWRKY34 (Oryza sativa, UniProt Q0JBA9 1-250) (assay: protein-binding microarray (RPBM); PBS, 2% BSA, 51.3 ng/ul salmon testes DNA, 50 uM zinc acetate, 200 nM TF, 25 C, 1 h; high values mean tight binding). Settings: protein: recombinant; tags: N-terminal polyhistidine and DsRed monomer fusion (pET32a); label: CyDye5-dUTP incorporated in the synthesized complementary strand; 3' TTTTT single-stranded linker to array surface; dsDNA, one strand shown.
In short: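 In PBS with 2% BSA, salmon testes DNA and 50 µM zinc acetate, 200 nM protein was incubated on a custom Agilent array at 25 °C for 1 h and then washed off. The array had been made double-stranded by primer extension with Cy5-dUTP and blocked with 2% BSA. The proteins were transcription factors fused N-terminally to polyhistidine and DsRed, expressed in E. coli BL21-CodonPlus and purified on Ni–NTA. The binding signal is per-feature fluorescence intensity (arbitrary units) from an Axon 4000B scanner.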
With “GCAAACCCTAGCGCGTGCTTTTTCCCCTGATTCACCGATTCGGAGTCACCTAGTGCAG” the binding signal was 8110 fluorescence intensity (a.u.). For “AGCCGAGCGTTGACTCACATAAAGGAGAACCACAAATTTCCGGAGTCACCTAGTGCAG”, the binding signal was 8570 fluorescence intensity (a.u.). With “TTTCTACTTCTTACCGATTTGTACTCTCTGTGTAAATTTACGGAGTCACCTAGTGCAG” the binding signal was 10400 fluorescence intensity (a.u.). With “TGCCCTGCCCTGCCCTAGCGCCGCCGCCGCTTTTCCTTCCCGGAGTCACCTAGTGCAG” the binding signal was 9250 fluorescence intensity (a.u.). “ACTCCATTTTTTTTCCTCGTTCGGTCTCTTCTAAAATAAACGGAGTCACCTAGTGCAG” was tested, and the binding signal was 9870 fluorescence intensity (a.u.). In the case of “ATGGTTCCTTTCATTCCTTTGTTTGGTCTTACGCTCGGTGCGGAGTCACCTAGTGCAG”, the binding signal is reported as 9210 fluorescence intensity (a.u.). “TAGTGTGACCACCTTGACTAACCTGAACCTCTTAATTACTCGGAGTCACCTAGTGCAG” was tested, and the binding signal was 8750 fluorescence intensity (a.u.). With “AAACATGTTTAAAAAAGTCAACGGCGTCAAACATTTAGGGCGGAGTCACCTAGTGCAG” the binding signal was 13800 fluorescence intensity (a.u.). In the case of “TCTGTGCCTGCTCTTCTGCCCAATTGGGATCGCGACTCACCGGAGTCACCTAGTGCAG”, the binding signal is reported as 8470 fluorescence intensity (a.u.). For “AATCCCGCCACACCTAATCCACTCTAGTAGCTCTCACATTCGGAGTCACCTAGTGCAG”, the binding signal was 9860 fluorescence intensity (a.u.). “TTGTTACTTTACATTCATTTCTCGCAGTTCCTCAGGATATCGGAGTCACCTAGTGCAG” was tested, and the binding signal was 10200 fluorescence intensity (a.u.). With “GCGTTGAGGGCAGGCGGCGGCGCTTGGTGGCGGTGGGGCACGGAGTCACCTAGTGCAG” the binding signal was 8370 fluorescence intensity (a.u.). For “CCTCTCTTTCTCTCTCTCTCTCTCTCTCTTTCTGTCCATTCGGAGTCACCTAGTGCAG”, the binding signal was 8100 fluorescence intensity (a.u.). “ATTCAACCACTGTTTTCTCTGCATGAACCTCTGTCACCCTCGGAGTCACCTAGTGCAG” was tested, and the binding signal was 9160 fluorescence intensity (a.u.). In the case of “CCGCCGCTGCTCCTCCCCATCGCCGAATCCGCCACCGCAGCGGAGTCACCTAGTGCAG”, the binding signal is reported as 8680 fluorescence intensity (a.u.). “TATGTACTATGTGTGTTTTAGAGCTTCACCTACACTGCCACGGAGTCACCTAGTGCAG” was tested, and the binding signal was 8530 fluorescence intensity (a.u.). For “CCGGTGCTTGGCCATGGACCTCCTTTCACGTCTAGCTCTCCGGAGTCACCTAGTGCAG”, the binding signal was 8440 fluorescence intensity (a.u.). In the case of “CATTGTCATCATCGATATTTTTGGTTTTATTTTCACGGGTCGGAGTCACCTAGTGCAG”, the binding signal is reported as 10100 fluorescence intensity (a.u.). With “ACACCATGAACACGTAGGTACATTTGCGTTCTGTATATATCGGAGTCACCTAGTGCAG” the binding signal was 8340 fluorescence intensity (a.u.). “ATACCAATCATCATGGTCCGGTTGCAAGTAAAATACTAGTCGGAGTCACCTAGTGCAG” was tested, and the binding signal was 8110 fluorescence intensity (a.u.). With “GGCTTCAGTATGAATTCTTACACAACCGTTGGTGTGCTACCGGAGTCACCTAGTGCAG” the binding signal was 9250 fluorescence intensity (a.u.). “ACTCACCCACGCACACATGCTGCGCCCTCACCGCCACGGCCGGAGTCACCTAGTGCAG” was tested, and the binding signal was 8580 fluorescence intensity (a.u.). For “TGGCGCCAGCCCTTAAGATTTGGGGAGGAGGGGTGGAACGCGGAGTCACCTAGTGCAG”, the binding signal was 10400 fluorescence intensity (a.u.). For “ATGTTTCGTATATTTTGATTATCGGGTTGGTCAGTTGTTTCGGAGTCACCTAGTGCAG”, the binding signal was 8900 fluorescence intensity (a.u.). With “TTCTTCTTTTCTTTTTTTTTTGTTTTCTTCTCATTCTTCTCGGAGTCACCTAGTGCAG” the binding signal was 10100 fluorescence intensity (a.u.). “ACACCGTCCCCGGTTGGCCGCCGCTGCTGTCGCCCGTCCGCGGAGTCACCTAGTGCAG” was tested, and the binding signal was 8130 fluorescence intensity (a.u.). In the case of “CGCGGATCGGCGCGCCACGTGTACGGCCATGATTCATCTCCGGAGTCACCTAGTGCAG”, the binding signal is reported as 8530 fluorescence intensity (a.u.). For “GCCGCCCGGCGACCACCACCACCACCATTAACGCTTAAACCGGAGTCACCTAGTGCAG”, the binding signal was 8550 fluorescence intensity (a.u.). In the case of “GAAAGTTGGGTTGAGAAAAAGGCATCGGGAATTTGGGATACGGAGTCACCTAGTGCAG”, the binding signal is reported as 8500 fluorescence intensity (a.u.). With “CCCCGCTCGCGGCCCGGTCGCGCCAAACATCGTCCGACTCCGGAGTCACCTAGTGCAG” the binding signal was 9010 fluorescence intensity (a.u.). For “GTTTCTTTCTCTCTCTCTCTCTCGTTCTCTCCGCTCTCTCCGGAGTCACCTAGTGCAG”, the binding signal was 8830 fluorescence intensity (a.u.). In the case of “ACTTTGTTTACGTATCTTCTCAATCTTGTCATTTTTTTCTCGGAGTCACCTAGTGCAG”, the binding signal is reported as 9810 fluorescence intensity (a.u.). For “CCAGCCCATCTGACTCATCGCGCCCGCCCCAGTCGATCTCCGGAGTCACCTAGTGCAG”, the binding signal was 8540 fluorescence intensity (a.u.). For “ATATCTGTTTTTACGGTTCGAGGACGTTTTTATATCCGATCGGAGTCACCTAGTGCAG”, the binding signal was 8940 fluorescence intensity (a.u.). With “CCAAAATACCACTACTACCCTTGCTTATTTGACCTCATTCCGGAGTCACCTAGTGCAG” the binding signal was 10700 fluorescence intensity (a.u.). For “ACAGCCCGCGCCGAACAGTTTCACCCTGTCCTCGTCACGTCGGAGTCACCTAGTGCAG”, the binding signal was 8460 fluorescence intensity (a.u.). For “CGTCGCGCTGCCTTTGGTCTCGTACTCCCGTGGGGAACTACGGAGTCACCTAGTGCAG”, the binding signal was 8270 fluorescence intensity (a.u.). “TCCCCATCCGCAACCTCTTCATCCTCGAGTCATGGCCTTTCGGAGTCACCTAGTGCAG” was tested, and the binding signal was 9050 fluorescence intensity (a.u.). With “CCAAAATTTTTCTATTCGCGAACTATATGAGGCCTTAGTACGGAGTCACCTAGTGCAG” the binding signal was 9560 fluorescence intensity (a.u.). “GAGTAGGGGTAGTTCAATGGTATTTTTATGTAAATACACTCGGAGTCACCTAGTGCAG” was tested, and the binding signal was 8110 fluorescence intensity (a.u.). For “ATAGATGTAGATATCTGACCCATTTTCACTCCCTACTCAACGGAGTCACCTAGTGCAG”, the binding signal was 8410 fluorescence intensity (a.u.). For “AACATGTTTAAAAAAGTCAACGGCGTCGAACATTTAGAGACGGAGTCACCTAGTGCAG”, the binding signal was 14200 fluorescence intensity (a.u.).
